# Experimental data reported in article PMC6899017.
# The chains behind the UniProt entries cited, without tags or fusion partners. Where a name states a change or a piece, a line headed by the entry shows the natural chain unless it says otherwise.
# UniProt P14904: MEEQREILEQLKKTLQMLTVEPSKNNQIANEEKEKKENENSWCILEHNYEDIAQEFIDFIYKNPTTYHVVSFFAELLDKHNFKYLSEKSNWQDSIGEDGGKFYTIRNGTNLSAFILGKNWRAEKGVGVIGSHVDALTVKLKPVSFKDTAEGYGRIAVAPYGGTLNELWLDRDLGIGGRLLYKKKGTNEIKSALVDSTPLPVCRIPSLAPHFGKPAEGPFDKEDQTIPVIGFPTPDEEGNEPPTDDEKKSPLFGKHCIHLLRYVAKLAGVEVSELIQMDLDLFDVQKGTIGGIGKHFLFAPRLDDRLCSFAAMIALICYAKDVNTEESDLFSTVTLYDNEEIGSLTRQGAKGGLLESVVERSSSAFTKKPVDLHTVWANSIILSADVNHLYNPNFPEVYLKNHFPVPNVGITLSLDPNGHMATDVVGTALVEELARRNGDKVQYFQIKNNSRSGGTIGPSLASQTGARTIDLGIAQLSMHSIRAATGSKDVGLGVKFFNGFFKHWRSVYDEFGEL
# Target: BFP–Ape1 (S. cerevisiae) (UniProt P14904)
# Experiment: ectopic recruitment to Ape1 oligomers (live-cell fluorescence microscopy); atg19Δvac8Δ cells with BFP–Ape1 and t-Vac8ΔN–GFP on plasmids; 1 h starvation in SD-N; GFP signal read against mTagBFP2–Ape1 puncta; punctum lost in ape1Δ cells
binder,measurement,value
"t-Vac8ΔN–GFP [Atg19(152-191)–Vac8(19-578)–GFP] (protein, UniProt P35193 152-191; P39968 19-578) NVVVSRECLDNFMKQLLKLEESLNKLELEQKVTNKEPNHRPIADNEREAVTLLLGYLEDKDQLDFYSGGPLKALTTLVYSDNLNLQRSAALAFAEITEKYVRQVSREVLEPILILLQSQDPQIQVAACAALGNLAVNNENKLLIVEMGGLEPLINQMMGDNVEVQCNAVGCITNLATRDDNKHKIATSGALIPLTKLAKSKHIRVQRNATGALLNMTHSEENRKELVNAGAVPVLVSLLSSTDPDVQYYCTTALSNIAVDEANRKKLAQTEPRLVSKLVSLMDSPSSRVKCQATLALRNLASDTSYQLEIVRAGGLPHLVKLIQSDSIPLVLASVACIRNISIHPLNEGLIVDAGFLKPLVRLLDYKDSEEIQCHAVSTLRNLAASSEKNRKEFFESGAVEKCKELALDSPVSVQSEISACFAILALADVSKLDLLEANILDALIPMTFSQNQEVSGNAAAALANLCSRVNNYTKIIEAWDRPNEGIRGFLIRFLKSDYATFEHIALWTILQLLESHNDKVEDLVKNDDDIINGVRKMADVTFERLQRSGIDVKNPGSNNNPSSNDNNSNNNDTGSEHQPVEDASLELYNITQQILQFLH",binding,binds

# These are yes or no findings as the source states them, for the method shown. Binding calls can cover weak binding; strength is not graded here. Tags and fused reporters may be left off the sequences shown.
